{"source": "patent US20050152845A1", "about": "“Amorphous fluticasone 2-furoate, pharmaceutical compositions thereof and its conversion to the crystalline unsolvated form” (priority 2002, published 2005)", "test": "Pharmacokinetics after intra-tracheal dry powder dosing in the pig", "type": "in vivo", "details": "1 mg intra-tracheal dry powder", "method": "Serial blood samples were taken for up to 8 h following dosing.", "note": "Some entries share one result that the patent states for a list of compounds."}
{"compound": "CCC(=O)O[C@]1(C(=O)SCF)[C@H](C)C[C@H]2[C@@H]3C[C@H](F)C4=CC(=O)C=C[C@]4(C)[C@@]3(F)[C@@H](O)C[C@@]21C", "note": "[Fluticasone propionate, 6α, 9α-Difluoro-17α-(1-oxopropoxy)-11β-hydroxy-16α-methyl-3-oxo-androsta-1,4-diene-17β-carbothioic acid S-fluoromethyl ester, reference compound]", "values": [{"measurement": "time of maximum plasma concentration after dosing", "result": "≤ 15", "unit": "min"}]}
